Results are given in words; binding and its absence hold for the method and conditions named. Some results given as binding are weak or reduced against the parent protein; the word gives no strength. Where a sequence is shown, tags or fusion partners need not be part of it.
Biological target: T1, His-tagged LAGE3 (human) (UniProt Q14657)
T1 sequence: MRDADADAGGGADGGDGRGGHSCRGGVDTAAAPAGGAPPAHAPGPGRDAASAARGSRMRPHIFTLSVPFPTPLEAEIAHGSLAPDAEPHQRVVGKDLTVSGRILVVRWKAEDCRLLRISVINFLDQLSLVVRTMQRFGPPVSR
Test: co-purification of co-expressed proteins; human 4-subunit KEOPS co-expressed in Sf9 cells; Ni-NTA column by His-tagged LAGE3 and S200 sizing column

binding: binds
Substance: TPRKB of the human 4-subunit KEOPS complex (Sf9) (from UniProt Q9Y3C4 1-175)
